Source: PMC6006247
Results are given in words; binding and its absence hold for the method and conditions named.

The chains behind the UniProt entries cited, without tags or fusion partners. Where a name states a change or a piece, a line headed by the entry shows the natural chain unless it says otherwise. A line that says so, or that is headed by a name, gives the form on record, which may keep a tag or linker.
human Top2α ATPase domain (residue 29 to 428) bearing the K168A mutation (P11388, form named): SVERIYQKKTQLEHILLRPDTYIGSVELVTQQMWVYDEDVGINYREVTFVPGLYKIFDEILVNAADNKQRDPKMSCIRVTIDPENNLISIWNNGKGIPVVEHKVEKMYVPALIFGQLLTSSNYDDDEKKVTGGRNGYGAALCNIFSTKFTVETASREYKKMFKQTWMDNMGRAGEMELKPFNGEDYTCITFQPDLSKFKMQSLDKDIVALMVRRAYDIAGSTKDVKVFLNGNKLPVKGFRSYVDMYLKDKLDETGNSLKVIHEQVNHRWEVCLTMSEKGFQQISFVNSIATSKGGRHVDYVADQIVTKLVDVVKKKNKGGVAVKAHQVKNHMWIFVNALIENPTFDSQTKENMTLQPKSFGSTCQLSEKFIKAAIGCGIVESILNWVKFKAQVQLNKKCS

How the values were obtained:
[1] = biological target: human Top2α ATPase domain (residue 29 to 428) bearing the K168A mutation (human) (UniProt P11388); assay: SEC; analytical gel filtration, Superdex200 10/300 GL; protein at 1.0 mg/ml with an excess of AMP-PNP (1 mM in the legend); 20 mM Tris-HCl pH 8.0, 5 mM MgCl2, 200 mM NaCl, 0.1 mM BME; 0.3 ml/min; both purified
[2] = biological target: human Top2α ATPase domain (residue 29 to 428) bearing the K168A mutation (human) (UniProt P11388); assay: SEC; analytical gel filtration, Superdex200 10/300 GL; protein at 1.0 mg/ml without AMP-PNP; 20 mM Tris-HCl pH 8.0, 5 mM MgCl2, 200 mM NaCl, 0.1 mM BME; 0.3 ml/min; both purified

## human Top2α ATPase domain (residue 29 to 428) bearing the K168A mutation (from UniProt P11388 29-428) (domain or fragment)
[1]
  binding: no binding (tested: 1.0 mg/ml)
[2]
  binding: no binding (tested: 1.0 mg/ml)
